Values of other authors as cited in article PMC5093203 (Pharmaceutical Research, 2016).

Details: rat, in vivo, iv; cited from earlier work

## insulin peglispro [BIL]
  % of dose excreted unchanged in urine: 11%
